The list is a part of this screen's results and no random one: it covers a few groups of compounds. Other doses and runs of a compound may be missing. T/C is the treated group as % of the vehicle group. Some doses have a count of surviving animals in place of a T/C: the source files T/C as zero there, which appears to mark a toxic dose or a test without result, not a measured value. Some survivor counts are full or nearly so, which does not show that the dose was tolerated: the source hardly ever lists a survival T/C far under the control, and the zero likely stands for such cases as well. Survivors were counted at the toxicity check, usually on the fifth day, unless a day is given; later deaths do not show. Schedules are NCI's codes, read here as Q, the interval in days (D) or hours (H), X, the number of doses. Some schedule codes hold Z or #, which are not explained here. Where survival is the endpoint, this PubChem deposit counts one and a half times the control or more as active, and values a quarter to a half above the control carry no call in these data; other NCI protocols may use other cut-offs. Some doses were run more than once; the values are given in rising order. Marks such as (2×) say how often a value occurs here. Some T/C values are marked as having no survivor count here; that says nothing about deaths at the dose. Some T/C values are followed by the survivors on the day toxicity was checked, most often the fifth; without a count or a note in brackets, all were alive then.
System: L1210 leukemia ip in BDF1 mice, survival T/C
Assay: NCI In Vivo Anticancer Drug Screen. Data for tumor model L1210 Leukemia (intraperitoneal) in B6D2F1 (BDF1) mice
Conditions: higher T/C = longer survival
[1] = T/C endpoint: mean survival time, dose: 100.0 mg/kg/injection, schedule: Q04DX003 (ip), vehicle: saline with Tween-80
[2] = T/C endpoint: mean survival time, dose: 200.0 mg/kg/injection, schedule: Q04DX003 (ip), vehicle: saline with Tween-80
[3] = T/C endpoint: mean survival time, dose: 400.0 mg/kg/injection, schedule: Q04DX003 (ip), vehicle: saline with Tween-80
[4] = T/C endpoint: median survival time, dose: 100.0 mg/kg/injection, schedule: Q01DX009 (ip), vehicle: saline
[5] = T/C endpoint: median survival time, dose: 200.0 mg/kg/injection, schedule: Q01DX009 (ip), vehicle: saline
[6] = T/C endpoint: median survival time, dose: 400.0 mg/kg/injection, schedule: Q01DX009 (ip), vehicle: saline

Question: For `CCOP(=O)(CC)OCCCCOP(=O)(CC)OCC` (configuration not stated), which T/C (T/C endpoint: mean survival time, dose: 4.0 mg/kg/injection, schedule: Q01DX Z (ip), vehicle: saline) is on record?
Answer: 96 % of control [survivor count not shown]

Question: What about the T/C (T/C endpoint: mean survival time, dose: 8.0 mg/kg/injection, schedule: Q01DX Z (ip), vehicle: saline) of the same compound?
Answer: 96 % of control [survivor count not shown]

Question: And the T/C (T/C endpoint: mean survival time, dose: 16.0 mg/kg/injection, schedule: Q01DX Z (ip), vehicle: saline)?
Answer: 88 % of control [survivor count not shown]

Question: What does the source list for `NC(=O)N/C(N)=N/P(=O)(Oc1ccccc1)Oc1ccccc1`?
Answer: T/C (T/C endpoint: mean survival time, dose: 100.0 mg/kg/injection, schedule: Q04DX003 (ip), vehicle: Klucel (hydroxypropylcellulose) (HPC)): 94 % of control; T/C (T/C endpoint: mean survival time, dose: 200.0 mg/kg/injection, schedule: Q04DX003 (ip), vehicle: Klucel (hydroxypropylcellulose) (HPC)): 102 % of control; T/C (T/C endpoint: mean survival time, dose: 400.0 mg/kg/injection, schedule: Q04DX003 (ip), vehicle: Klucel (hydroxypropylcellulose) (HPC)): 96 % of control

Question: `CCCCOP(OCCCC)OCCCC` was tested. Which T/C [1] did it give?
Answer: 96 % of control

Question: What about the T/C [2] of the same compound?
Answer: 94 % of control

Question: What about the T/C [3] of the same compound?
Answer: 100 % of control

Question: With `O=P(Cl)(CCl)c1ccccc1` (configuration not stated) as the compound, how does the T/C (T/C endpoint: mean survival time, dose: 9.37 mg/kg/injection, schedule: Q01DX009 (ip), vehicle: saline) read?
Answer: 96 % of control

Question: And the T/C (T/C endpoint: mean survival time, dose: 18.75 mg/kg/injection, schedule: Q01DX009 (ip), vehicle: saline)?
Answer: 96 % of control

Question: And the T/C (T/C endpoint: mean survival time, dose: 18.75 mg/kg/injection, schedule: Q04DX003 (ip), vehicle: acetone)?
Answer: 94 % of control

Question: And the T/C (T/C endpoint: mean survival time, dose: 37.5 mg/kg/injection, schedule: Q01DX009 (ip), vehicle: saline)?
Answer: 95 % of control

Question: And the T/C (T/C endpoint: mean survival time, dose: 37.5 mg/kg/injection, schedule: Q04DX003 (ip), vehicle: acetone)?
Answer: 94 % of control

Question: What about the T/C (T/C endpoint: mean survival time, dose: 75.0 mg/kg/injection, schedule: Q01DX001 (ip), vehicle: acetone) of the same compound?
Answer: 94 % of control

Question: And the T/C (T/C endpoint: mean survival time, dose: 75.0 mg/kg/injection, schedule: Q04DX003 (ip), vehicle: acetone)?
Answer: 98 % of control [5 of 6 alive]

Question: And the survivor count (T/C endpoint: mean survival time, dose: 150.0 mg/kg/injection, schedule: Q01DX001 (ip), vehicle: acetone)?
Answer: 3 of 6

Question: What about the survivor count (T/C endpoint: mean survival time, dose: 300.0 mg/kg/injection, schedule: Q01DX001 (ip), vehicle: acetone) of the same compound?
Answer: 0 of 6

Question: Which T/C (T/C endpoint: mean survival time, dose: 100.0 mg/kg/injection, schedule: Q01DX009 (ip), vehicle: gum acacia) does the source give for `Cc1c([N+](=O)[O-])cc([N+](=O)[O-])c(-c2c([N+](=O)[O-])cc([N+](=O)[O-])c(C)c2[N+](=O)[O-])c1[N+](=O)[O-]` here?
Answer: 89 % of control [survivor count not shown]

Question: And the T/C (T/C endpoint: mean survival time, dose: 100.0 mg/kg/injection, schedule: Q04DX003 (ip), vehicle: gum acacia)?
Answer: 98 % of control [survivor count not shown]

Question: And the T/C (T/C endpoint: mean survival time, dose: 200.0 mg/kg/injection, schedule: Q01DX009 (ip), vehicle: gum acacia)?
Answer: 86 % of control [survivor count not shown]

Question: What about the T/C (T/C endpoint: mean survival time, dose: 200.0 mg/kg/injection, schedule: Q04DX003 (ip), vehicle: gum acacia) of the same compound?
Answer: 95 % of control [survivor count not shown]

Question: And the T/C (T/C endpoint: mean survival time, dose: 400.0 mg/kg/injection, schedule: Q04DX003 (ip), vehicle: gum acacia)?
Answer: 93 % of control [survivor count not shown]

Question: What does the source list for `C/C(=N\OC(C)([N+](=O)[O-])[N+](=O)[O-])[N+](=O)[O-]`?
Answer: T/C (T/C endpoint: mean survival time, dose: 25.0 mg/kg/injection, schedule: Q01DX009 (ip), vehicle: acetone): 95 % of control [survivor count not shown]; T/C (T/C endpoint: mean survival time, dose: 50.0 mg/kg/injection, schedule: Q01DX009 (ip), vehicle: acetone): 95 % of control [survivor count not shown]; T/C (T/C endpoint: mean survival time, dose: 100.0 mg/kg/injection, schedule: Q04DX003 (ip), vehicle: saline): 105 % of control [survivor count not shown]; T/C (T/C endpoint: mean survival time, dose: 200.0 mg/kg/injection, schedule: Q04DX003 (ip), vehicle: saline): 93 % of control [survivor count not shown]

Question: With `[N-]=[N+]=NC(=O)c1cc(Cl)cc(C(=O)N=[N+]=[N-])n1` as the compound, how does the T/C (T/C endpoint: mean survival time, dose: 25.0 mg/kg/injection, schedule: Q01DX009 (ip), vehicle: saline with Tween-80) read?
Answer: 92 % of control [5 of 6 alive]

Question: And the T/C (T/C endpoint: mean survival time, dose: 25.0 mg/kg/injection, schedule: Q04DX003 (ip), vehicle: saline with Tween-80)?
Answer: 90 % of control

Question: What about the T/C (T/C endpoint: mean survival time, dose: 50.0 mg/kg/injection, schedule: Q01DX009 (ip), vehicle: saline with Tween-80) of the same compound?
Answer: 87 % of control [4 of 6 alive]

Question: What about the T/C (T/C endpoint: mean survival time, dose: 50.0 mg/kg/injection, schedule: Q04DX003 (ip), vehicle: saline with Tween-80) of the same compound?
Answer: 89 % of control

Question: And the survivor count (T/C endpoint: mean survival time, dose: 100.0 mg/kg/injection, schedule: Q01DX009 (ip), vehicle: saline with Tween-80)?
Answer: 0 of 6

Question: What about the T/C [1] of the same compound?
Answer: 97 % of control [4 of 6 alive]

Question: And the survivor count [1]?
Answer: 4 of 6

Question: What about the survivor count [2] of the same compound?
Answer: 3 of 6

Question: And the survivor count [3]?
Answer: 0 of 6

Question: `O=C(NP(=O)(N1CCOCC1)N1CCOCC1)N1CCOCC1` was tested. Which T/C (T/C endpoint: mean survival time, dose: 50.0 mg/kg/injection, schedule: Q01DX001 (ip), vehicle: saline) did it give?
Answer: 106 % of control

Question: And the T/C (T/C endpoint: mean survival time, dose: 100.0 mg/kg/injection, schedule: Q01DX001 (ip), vehicle: saline)?
Answer: 101 % of control

Question: And the T/C (T/C endpoint: mean survival time, dose: 200.0 mg/kg/injection, schedule: Q01DX001 (ip), vehicle: saline)?
Answer: 104 % of control

Question: What about the T/C (T/C endpoint: mean survival time, dose: 400.0 mg/kg/injection, schedule: Q01DX001 (ip), vehicle: saline) of the same compound?
Answer: 106 % of control

Question: Which results are given for `CN(CCCl)CC1OC(O)C(O)C(O)C1O` (configuration not stated)?
Answer: T/C (T/C endpoint: mean survival time, dose: 5.6 mg/kg/injection, schedule: Q01DX Z (ip), vehicle: saline): 121 % of control; T/C (T/C endpoint: mean survival time, dose: 11.3 mg/kg/injection, schedule: Q01DX Z (ip), vehicle: saline): 144 % of control; T/C (T/C endpoint: mean survival time, dose: 18.0 mg/kg/injection, schedule: Q01DX Z (ip), vehicle: methylcellulose (MC)): 184 % of control; T/C (T/C endpoint: mean survival time, dose: 22.5 mg/kg/injection, schedule: Q01DX Z (ip), vehicle: saline): 152 % of control; T/C (T/C endpoint: mean survival time, dose: 27.0 mg/kg/injection, schedule: Q01DX Z (ip), vehicle: methylcellulose (MC)): 182 % of control; T/C (T/C endpoint: mean survival time, dose: 40.0 mg/kg/injection, schedule: Q01DX Z (ip), vehicle: methylcellulose (MC)): 146 % of control; T/C (T/C endpoint: mean survival time, dose: 45.0 mg/kg/injection, schedule: Q01DX Z (ip), vehicle: saline): 144 % of control; survivor count (T/C endpoint: mean survival time, dose: 60.0 mg/kg/injection, schedule: Q01DX Z (ip), vehicle: methylcellulose (MC)): 4 of 6; survivor count (T/C endpoint: mean survival time, dose: 90.0 mg/kg/injection, schedule: Q01DX Z (ip), vehicle: methylcellulose (MC)): 2 of 6; survivor count (T/C endpoint: mean survival time, dose: 90.0 mg/kg/injection, schedule: Q01DX Z (ip), vehicle: saline): 3 of 6

Question: `COc1ccc(C(=O)OCCNCCCl)cc1` was tested. Which T/C [4] did it give?
Answer: 110 % of control

Question: And the T/C [5]?
Answer: 104 % of control

Question: What about the T/C [6] of the same compound?
Answer: 110 % of control

Question: What does the source list for `O=C(O)c1cccc(N(CCCl)CCCl)c1`?
Answer: T/C (T/C endpoint: median survival time, dose: 100.0 mg/kg/injection, schedule: Q01DX009 (ip), vehicle: Klucel (hydroxypropylcellulose) (HPC)): 129 % of control; survivor count (T/C endpoint: median survival time, dose: 200.0 mg/kg/injection, schedule: Q01DX009 (ip), vehicle: Klucel (hydroxypropylcellulose) (HPC)): 1 of 6; survivor count (T/C endpoint: median survival time, dose: 400.0 mg/kg/injection, schedule: Q01DX009 (ip), vehicle: Klucel (hydroxypropylcellulose) (HPC)): 0 of 6

Question: How did the T/C [4] turn out when `O=C(Cc1ccccc1)OCCNCCCl` was run?
Answer: 106 % of control

Question: And the T/C [5]?
Answer: 105 % of control

Question: What about the T/C [6] of the same compound?
Answer: 96 % of control

Question: What does the source list for `COC(=O)c1ccccc1C[N+](C)(CCCl)CCCl`?
Answer: T/C (T/C endpoint: mean survival time, dose: 2.9 mg/kg/injection, schedule: Q01DX009 (ip), vehicle: saline): 103 % of control; T/C (T/C endpoint: mean survival time, dose: 3.0 mg/kg/injection, schedule: Q01DX009 (ip), vehicle: saline): 105 % of control; T/C (T/C endpoint: mean survival time, dose: 4.35 mg/kg/injection, schedule: Q01DX009 (ip), vehicle: saline): 120 % of control; T/C (T/C endpoint: mean survival time, dose: 4.4 mg/kg/injection, schedule: Q01DX009 (ip), vehicle: saline): 99 % of control; T/C (T/C endpoint: mean survival time, dose: 5.0 mg/kg/injection, schedule: Q01DX001 (ip), vehicle: carboxymethylcellulose (CMC)): 114 % of control; T/C (T/C endpoint: mean survival time, dose: 6.6 mg/kg/injection, schedule: Q01DX009 (ip), vehicle: saline): 107 (2×) and 142 % of control; T/C (T/C endpoint: mean survival time, dose: 6.6 mg/kg/injection, schedule: Q04DX003 (ip), vehicle: saline): 122 and 123 % of control; T/C (T/C endpoint: mean survival time, dose: 10.0 mg/kg/injection, schedule: Q01DX001 (ip), vehicle: carboxymethylcellulose (CMC)): 114 % of control; T/C (T/C endpoint: mean survival time, dose: 10.0 mg/kg/injection, schedule: Q01DX009 (ip), vehicle: saline): 112, 118, 152 % of control; T/C (T/C endpoint: mean survival time, dose: 10.0 mg/kg/injection, schedule: Q04DX003 (ip), vehicle: saline): 104, 111, 126 % of control; T/C (T/C endpoint: mean survival time, dose: 15.0 mg/kg/injection, schedule: Q01DX009 (ip), vehicle: saline): 109 % of control; T/C (T/C endpoint: mean survival time, dose: 15.0 mg/kg/injection, schedule: Q04DX003 (ip), vehicle: saline): 103 and 118 % of control; T/C (T/C endpoint: mean survival time, dose: 20.0 mg/kg/injection, schedule: Q04DX003 (ip), vehicle: saline): 121 % of control

Source: PubChem BioAssay AID248 (DTP/NCI, 2004)
